PubChem BioAssay AID504791, Drosophila RNAi Screening Center | 2011

Purpose: 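Genes whose knock-down strengthens or weakens small-RNA reporter silencing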 (primary screen)
System: Drosophila S2-derived reporter cells
Reagents: long dsRNA against Drosophila genes, about 150-250 ng dsRNA per well (siRNA assay); about 80-120 ng (miRNA assay)
Duration: about 5 days (siRNA assay); about 4 days (miRNA assay)
Treatment: copper sulfate induction of reporters: 25 µM (siRNA assay); 200 mM stated (miRNA assay), 1-2 days before reading
Measurement: 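Dual luciferase assay: Renilla to firefly signal ratio in each well, scaled to the mean ratio of its plate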
Direction: siRNA reporter hit score: higher = 3 marks a strong hit with raised ratio; -3 a strong hit with lowered ratio
Units: stable assay Renilla, run 1 in luminescence; stable assay firefly, run 1 in luminescence
Hit rule: 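a well was a first-pass pick when its plate-scaled ratio rose above 1.5 (siRNA assay) or 1.6 (miRNA assay), or dropped below 0.6; a gene counted only if two separate dsRNAs agreed on retest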
In all, the deposit lists about 23,000 reagents; this is an unselected part of those that have a named target and a result. Of all reagents, 199 (0.86%) are marked active. 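Plate-scaled ratios behind the calls are not deposited; printed light signals are raw; many rows marked increased or decreased are still called inactive.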 Reagents against one gene are numbered here. No sequences are given here.

Baldspot | stable assay Renilla, run 1 = 6562; stable assay firefly, run 1 = 3.80e5; activity call = inactive
H2.0 (Homeodomain protein 2.0) #1 | stable assay Renilla, run 1 = 3927; stable assay firefly, run 1 = 3.15e5; activity call = inactive
H2.0 (Homeodomain protein 2.0) #2 | stable assay Renilla, run 1 = 5251; stable assay firefly, run 1 = 5.32e5; activity call = inactive
Atac2 (Ada2a-containing complex component 2) | stable assay Renilla, run 1 = 8576; stable assay firefly, run 1 = 1.78e6; activity call = inactive
beta'COP (Coat Protein (coatomer) beta') | stable assay Renilla, run 1 = 4819; stable assay firefly, run 1 = 7.45e5; activity call = inactive
wek (weckle) | stable assay Renilla, run 1 = 16968; stable assay firefly, run 1 = 1.24e6; activity call = inactive
CG18063 | stable assay Renilla, run 1 = 7246; stable assay firefly, run 1 = 3.98e5; activity call = inactive
Nuak (Nuak family kinase) #1 | stable assay Renilla, run 1 = 6704; stable assay firefly, run 1 = 4.28e5; activity call = inactive
Nuak (Nuak family kinase) #2 | stable assay Renilla, run 1 = 7300; stable assay firefly, run 1 = 2.77e5; activity call = inactive
Nuak (Nuak family kinase) #3 | stable assay Renilla, run 1 = 6740; stable assay firefly, run 1 = 4.80e5; activity call = inactive
Nacalpha (Nascent polypeptide associated complex protein alpha subunit) | stable assay Renilla, run 1 = 5762; stable assay firefly, run 1 = 2.53e5; activity call = inactive
AttA (Attacin-A) | stable assay Renilla, run 1 = 8807; stable assay firefly, run 1 = 6.45e5; activity call = inactive
Gyc32E (Guanylyl cyclase at 32E) | stable assay Renilla, run 1 = 4295; stable assay firefly, run 1 = 2.76e5; activity call = inactive
mRpL11 (mitochondrial ribosomal protein L11) | stable assay Renilla, run 1 = 5800; stable assay firefly, run 1 = 4.08e5; activity call = inactive
CG31639 | stable assay Renilla, run 1 = 3811; stable assay firefly, run 1 = 2.70e5; activity call = inactive
Npc2f (Niemann-Pick type C-2f) | stable assay Renilla, run 1 = 8011; stable assay firefly, run 1 = 3.55e5; activity call = inactive
orb (oo18 RNA-binding protein) #1 | siRNA reporter hit score = 3; stable siRNA reporter change = reporter ratio raised past the hit cutoff; miRNA reporter change = reporter ratio lowered past the hit cutoff; stable assay Renilla, run 1 = 9077; stable assay firefly, run 1 = 2.36e5; activity call = inactive
orb (oo18 RNA-binding protein) #2 | stable assay Renilla, run 1 = 3616; stable assay firefly, run 1 = 3.42e5; activity call = inactive
CG14304 | stable assay Renilla, run 1 = 6184; stable assay firefly, run 1 = 2.08e5; activity call = inactive
CG10339 | stable assay Renilla, run 1 = 5954; stable assay firefly, run 1 = 3.44e5; activity call = inactive
SIFa (SIFamide) | stable assay Renilla, run 1 = 6803; stable assay firefly, run 1 = 5.04e5; activity call = inactive
NT5E-2 (Ecto-5'-nucleotidase 2) | stable assay Renilla, run 1 = 8246; stable assay firefly, run 1 = 3.36e5; activity call = inactive
CG6195 | stable assay Renilla, run 1 = 7926; stable assay firefly, run 1 = 3.49e5; activity call = inactive
pix (pixie) | stable assay Renilla, run 1 = 4527; stable assay firefly, run 1 = 4.13e5; activity call = inactive
sut2 (sugar transporter 2) | stable assay Renilla, run 1 = 8985; stable assay firefly, run 1 = 4.79e5; activity call = inactive
Cchl (Cytochrome c heme lyase) | stable assay Renilla, run 1 = 7598; stable assay firefly, run 1 = 4.24e5; activity call = inactive
Ets97D (Ets at 97D) | stable assay Renilla, run 1 = 5799; stable assay firefly, run 1 = 4.19e5; activity call = inactive
ebd1 (earthbound 1) | stable assay Renilla, run 1 = 10397; stable assay firefly, run 1 = 5.18e5; activity call = inactive
CG11362 #1 | stable assay Renilla, run 1 = 5738; stable assay firefly, run 1 = 3.78e5; activity call = inactive
CG11362 #2 | stable assay Renilla, run 1 = 9320; stable assay firefly, run 1 = 5.85e5; activity call = inactive
nompB (no mechanoreceptor potential B) #1 | stable assay Renilla, run 1 = 6955; stable assay firefly, run 1 = 5.21e5; activity call = inactive
nompB (no mechanoreceptor potential B) #2 | stable assay Renilla, run 1 = 3472; stable assay firefly, run 1 = 3.88e5; activity call = inactive
CG15253 | stable assay Renilla, run 1 = 6787; stable assay firefly, run 1 = 4.67e5; activity call = inactive
ttm2 (tiny tim 2) | stable assay Renilla, run 1 = 6063; stable assay firefly, run 1 = 3.44e5; activity call = inactive
osa | stable assay Renilla, run 1 = 9842; stable assay firefly, run 1 = 6.08e5; activity call = inactive

Limited to “stable assay firefly, run 1” (5 entries from above):
SIFa (SIFamide): 5.04e5
NT5E-2 (Ecto-5'-nucleotidase 2): 3.36e5
CG6195: 3.49e5
pix (pixie): 4.13e5
sut2 (sugar transporter 2): 4.79e5
